The campaign covered roughly 1,900 compounds. Fewer than 10 were called active. Not shown: some 39% with an inconclusive outcome. The entries are a selection whose mix differs from that of the whole data set.

Among the data in PubChem BioAssay AID977622 (Broad Institute, 2014) are activity change, negative = inhibition values, retold here.

The experiment in a line: growth inhibition of wild-type GFP E. coli, dose response, h38 mutant RFP, cherry-pick (AID 977622). The conditions noted are these: E. coli WT ribosome GFP fluorescence, mixed culture, 24 h; at 50 µM (top of the series).
Consider `Nc1c(C(=O)NCCN2CCOCC2)c2nc3ccccc3nc2n1Cc1ccccc1`, for which the activity change, negative = inhibition is inactive: -4.29.

Consider `CC(=O)OC1N=C(c2ccccc2Cl)c2cc(Br)ccc2NC1=O` (centres undefined), for which the activity change, negative = inhibition was inactive: -11.7.

On to `Cc1c(C(=O)Nc2ccccc2)c2cc(O)ccc2n1Cc1ccccc1`, for which the activity change, negative = inhibition is inactive: 1.39.

For the molecule `CN1CCC(c2c[nH]c3ccccc23)C1` (centres undefined), the activity change, negative = inhibition is inactive: 0.997.
